Hit rate of the full screen: of about 390,000 compounds, about 610 (0.16%) were called active. The inconclusive results got no clear call from the source; some entries with a clear call stand among them for comparison. Calls come from the whole dose curve; as a rule, active = well fitted inhibition curve with a large enough effect; inconclusive = small, poorly fitted or top-dose-only effect, or effect the other way, or another doubt; inactive = no such curve, though single readings can be large or run the other way. Potencies of inconclusive entries are doubtful fits and often do not repeat.
Assay: Nrf2 qHTS screen for inhibitors: counterscreen for cytotoxicity
Details: A549 ARE-Fluc cells, CellTiter-Fluor viability, 18-24 h; activity change, negative = cytotoxicity: at 46 µM (top of the series)
Procedure, shortened: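 Cytotoxicity counterscreen: CellTiter-Fluor fluorescence was measured in A549 ARE_Fluc cells after 18-24 h of compound exposure in a concentration series. The subsequent BugLite luminescent read reports ARE-luciferase activity.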
% is set by controls: 0 for no effect and ±100 for the full control effect; potency is the fitted concentration of half-maximal effect.

| Compound | Potency | activity change, negative = cytotoxicity |
| --- | --- | --- |
| O=C(c1ccc(Cl)cc1)C1CCCN(Cc2cnn(-c3ccccc3)c2)C1 (stereo not drawn) | inconclusive: 29.1 µM [falling, single point] | – |
| CC(C)(C)c1ccc(NC(=O)COC(=O)c2ccc3ncsc3c2)cc1 | inconclusive: 25.9 µM [falling, single point] | – |
| COc1cc(C(=O)NC2CCCc3c2cnn3-c2ccccc2F)cc(OC)c1OC (stereo not drawn) | – | inactive: -13.8% |
| COc1ccc(-n2nc3c(N4CCC(C(=O)NCCc5ccccc5C)CC4)nnc(C)c3c2C)cc1 | inconclusive: 18.4 µM [falling, single point] | – |
| O=[N+]([O-])c1cc(Br)cc(/C=N/n2cnnc2)c1O | inconclusive: 23.1 µM [falling, partial curve, poor fit] | – |
| Cn1c(SCC(=O)N2CCOCC2)ncc(C(=O)Nc2ccc(F)cc2)c1=O | – | inactive: -0.672% |
| CCSc1nc2sc3c(c2c(=O)n1-c1ccc(OC)cc1)CCN(C)C3 | – | inactive: -1.59% |
| C#CCOc1c(Cl)cc(C2C3=C(CCCC3=O)N(CC(=O)O)C3=C2C(=O)CCC3)cc1OC | inconclusive: 23.1 µM [activator, single point] | – |
| N#Cc1nc(-c2cccc3ccccc23)oc1N1CCCCC1 | – | inactive: 5.83% |
| NC(N)=N/N=C/c1cc([N+](=O)[O-])ccc1O | inconclusive: 23.1 µM [falling, partial curve, poor fit] | – |
| Cc1ccc(CNC(=O)C2CCCN(c3nc4ccccc4n4cccc34)C2)cc1 (stereo not drawn) | – | inactive: 10.7% |
| CCN(CC)c1ccc2c(C)c(CN3CCOCC3)c(=O)oc2c1 | inconclusive: 23.1 µM [activator, single point] | – |
| CC(C)(C)c1cc(NC(=O)CCSc2nnc3ccccn23)cc(C(C)(C)C)c1 | inconclusive: 23.1 µM [falling, single point] | – |
| Nc1nccc(/C=C/c2c(Cl)cccc2Cl)n1 | – | inactive: -1.18% |
| Cn1c(=O)[nH]c(=O)c2c1nc([N+](=O)[O-])n2Cc1ccccc1 | inconclusive: 20.6 µM [falling, single point] | – |
| CCCCc1cc(=O)oc2cc(OCC(=O)NC3CCN(Cc4ccccc4)CC3)ccc12 | inconclusive: 32.6 µM [falling, single point] | – |
| CC(=O)/C(=N\Nc1ccccc1)Oc1ccc([N+](=O)[O-])cc1 | inconclusive: 18.4 µM [falling, single point] | – |
| CCCn1c(/C=N/Nc2nc3ccccc3[nH]2)nc2ccccc21 | inconclusive: 29.1 µM [falling, partial curve, poor fit] | – |
| N=c1ccn(CC(=O)c2ccc(-c3ccccc3)cc2)cc1 | inconclusive: 16.4 µM [falling, partial curve, poor fit] | – |
| O=C(c1ccc(N2CCN(CCO)CC2)nc1)N1CCOCC1 | – | inactive: 3.15% |
| COc1ccc(N(C)C(=O)c2cn(C3CCCCC3)c(=O)c3c2c2ccccc2n3C)cc1 | inconclusive: 23.1 µM [falling, partial curve, poor fit] | – |
| COc1ccc(C2=NN(CC(=O)NCCc3ccc(OC)c(OC)c3)C(=O)CC2)cc1 | – | inactive: 4.65% |
| O=c1cc(-c2ccccc2Cl)oc2c([N+](=O)[O-])c(O)cc(O)c12 | inconclusive: 20.6 µM [falling, partial curve, poor fit] | – |

| Compound | Potency | activity change, negative = cytotoxicity |
| --- | --- | --- |
| Cc1ccccc1-c1nnc(SCc2ccccc2)o1 | inconclusive: 25.9 µM [falling, partial curve, poor fit] | – |
| CCC(=O)NC1=C(Nc2ccc(N)cc2)C(=O)c2ccccc2C1=O | inconclusive: 18.4 µM [falling, partial curve, poor fit] | – |
| COc1ccccc1NC(=O)C(=O)NCCc1csc(-c2cccc(F)c2)n1 | inconclusive: 32.6 µM [activator, partial curve, poor fit] | – |
| CCOC(=O)c1c(NC(=O)C(Sc2ccccc2)c2ccccc2)sc(C(=O)N(C)C)c1C (stereo not drawn) | inconclusive: 29.1 µM [falling, single point] | – |
| CCc1ccc(NC(=O)C(=S)NC2CCCCC2)cc1 | – | inactive: 3% |
| O=C(Nc1ccccc1)C1=C[C@@H](c2ccc(Br)cc2)C[C@@H](OCc2ccc(CO)cc2)O1 | – | inactive: -11.4% |
| Cc1ccc(CNC(=O)c2ccc(Cn3nc(C)c(Cl)c3C)o2)cc1 | – | inactive: 3.08% |
| O=C(Nc1ccc(N2CCN(Cc3ccccc3F)CC2)cc1)c1ccc([N+](=O)[O-])o1 | active: 16.4 µM | – |
| CC(C)COC(=O)N(C)c1ccc(C(O)(C(F)(F)F)C(F)(F)F)cc1 | inconclusive: 18.4 µM [falling, partial curve, poor fit] | – |
| COc1ccc(-n2c(=O)c3c4c(sc3n(Cc3ccc(F)cc3)c2=O)CCCC4)c(OC)c1 | – | inactive: -2.06% |
| COc1ccccc1N1N=C(C(=O)c2ccccc2)C2C(=O)N(c3ccc(Br)cc3)C(=O)C21 (stereo not drawn) | inconclusive: 29.1 µM [falling, single point] | – |
| C[C@@H]1CC=C[C@H]2[C@H]1C(=O)N(Cc1ccccc1)[C@H]2c1ccc(-c2cc3ccccc3s2)cc1F | inconclusive: 32.6 µM [activator, partial curve, poor fit] | – |
| Cc1cc(C)c(NC(=O)Cc2csc(C)n2)c(Cl)c1 | – | inactive: -0.0838% |
| CCCCNC(=S)N(C)/N=C/c1ccc(OCC(=O)Nc2c(C)cc(C)cc2C)c(OC)c1 | inconclusive: 16.4 µM [falling, partial curve] | – |
| Cc1ccc(CNC(=O)Cn2ccc3cc(S(=O)(=O)N4CCCCCC4)ccc32)cc1 | inconclusive: 23.1 µM [falling, partial curve, poor fit] | – |
| O=C(N/N=C/c1ccc([N+](=O)[O-])s1)c1cccnc1 | inconclusive: 16.4 µM [falling, partial curve] | – |
| CCOC(=O)c1sc(S(C)=O)c2c1CCc1conc1-2 (stereo not drawn) | – | inactive: 0.509% |
| Cc1cc(C(=O)Nc2ccc3ccccc3c2)oc1C | inconclusive: 14.6 µM [falling, partial curve, poor fit] | – |
| CC(C)(C)OC(=O)N1CCC(c2c(C(=O)N3CCC(c4ccccc4)C3)cnn2-c2cccc(Cl)c2)CC1 (stereo not drawn) | inconclusive: 29.1 µM [falling, single point] | – |
| Cc1cc2nn(-c3ccc(Cl)cc3)nc2cc1N | – | inactive: 8.46% |
| c1ccc2c(c1)OCCOCCOCCOCCOCCOc1ccccc1OCCOCCOCCO2 | inconclusive: 18.4 µM [falling, single point] | – |
| c1ccc(-n2c(Cc3cn4ccsc4n3)nnc2N2CCOCC2)cc1 | inconclusive: 29.1 µM [activator, partial curve, poor fit] | – |
| COC(=O)C1Cc2c([nH]c3ccccc23)CN1 (stereo not drawn) | – | inactive: -2.93% |

| Compound | Potency | activity change, negative = cytotoxicity |
| --- | --- | --- |
| CC[n+]1c(/C=C/c2ccc(N(C)C)cc2)ccc2ccccc21 | active: 20.6 µM | – |
| COc1ccc(-n2ccnc2SCC(=O)Nc2ccc(F)cc2F)cc1 | – | inactive: -0.185% |
| Cc1cc(-c2nnc(SCC(=O)Nc3ccccc3)n2C)no1 | – | inactive: 3.73% |
| CC(OC(=O)c1snc(C(=O)NC2CCCCC2)c1N)C(=O)NC(C)(C)C (stereo not drawn) | – | inactive: -20.2% |
| C=CCn1c(SCC#N)nc2cc(Cl)ccc2c1=O | – | inactive: -0.0072% |
| CCN(CC)S(=O)(=O)c1ccc2nc(CCl)[nH]c2c1 | inconclusive: 32.6 µM [falling, partial curve, poor fit] | – |
| COc1cccc(C(=O)Nc2ccc(N3CCCC3)cc2)c1 | inconclusive: 16.4 µM [falling, partial curve, poor fit] | – |
| Cc1cccc2cc(C#N)c(SCC(=O)N3CC(=O)Nc4ccccc43)nc12 | inconclusive: 3.66 µM [falling, partial curve, poor fit] | – |
| Cc1sc2ncn(CC(=O)N(C)c3ccc(Br)cc3)c(=O)c2c1S(=O)(=O)N1CCC(C)CC1 | inconclusive: 20.6 µM [falling, partial curve, poor fit] | – |
| Cc1ccc(C)c(NC(=S)NCCc2ccc(F)cc2)c1 | inconclusive: 6.51 µM [activator, single point] | – |
| COc1cccc(/C=C2\N=C(c3c(-c4ccccc4)noc3C)OC2=O)c1 | inconclusive: 16.4 µM [activator, partial curve] | – |
| COc1ccc(NC(=O)c2cc3c(=O)n(Cc4ccco4)ccc3nc2C)cc1 | – | inactive: 7.03% |
| CN1C(C(=O)c2ccccc2)=C(OC(=O)c2ccc(Br)cc2)c2ccccc2S1(=O)=O | inconclusive: 29.1 µM [falling, single point] | – |
| Cc1cc2ccccn2c1C(=O)c1cccc([N+](=O)[O-])c1 | inconclusive: 29.1 µM [falling, single point] | – |
| Cc1cc(C)c(S(=O)(=O)Nc2ccc3c(c2)CCC3)c(C)c1 | inconclusive: 32.6 µM [falling, partial curve, poor fit] | – |
| C=C1CC2(CC(c3ccccc3)OC(c3ccccc3)C2)OC1=O (stereo not drawn) | inconclusive: 29.1 µM [falling, single point] | – |
| COc1cc(C2Oc3ccccc3C=C2[N+](=O)[O-])cc(OC)c1OC (stereo not drawn) | inconclusive: 29.1 µM [falling, single point] | – |
| COc1cc(OC)c(OC)cc1/C=C1\CCC/C(=C\c2cc(OC)c(OC)cc2OC)C1=O | inconclusive: 18.4 µM [falling, single point] | – |
| CS(=O)(=O)N(CC(O)Cn1c2ccccc2c2ccccc21)c1cccc2ccccc12 (stereo not drawn) | inconclusive: 18.4 µM [falling, partial curve, poor fit] | – |
| O=C(O)C(c1ccccc1)N1C(=O)/C(=C\c2ccc(O)c(O)c2)SC1=S (stereo not drawn) | inconclusive: 20.6 µM [falling, partial curve] | – |
| COc1ccc(C(=O)CSc2ccc(-c3ccco3)nn2)cc1 | – | inactive: 0.608% |
| c1ccc(Oc2ncnc3sccc23)cc1 | inconclusive: 29.1 µM [activator, single point] | – |

Structures from the list above containing a COOH group (2):

| Compound | Potency | activity change, negative = cytotoxicity |
| --- | --- | --- |
| C#CCOc1c(Cl)cc(C2C3=C(CCCC3=O)N(CC(=O)O)C3=C2C(=O)CCC3)cc1OC | inconclusive: 23.1 µM [activator, single point] | – |
| O=C(O)C(c1ccccc1)N1C(=O)/C(=C\c2ccc(O)c(O)c2)SC1=S (stereo not drawn) | inconclusive: 20.6 µM [falling, partial curve] | – |

Source: PubChem BioAssay AID504648 (National Center for Advancing Translational Sciences (NCATS), 2011)
